# For at least one compound, name, drawing or mass did not settle the structure.
# Columns and labels:
# patients with SSc [1] = assay: Example 2: brachial artery flow-mediated dilation (FMD), double-blind randomized crossover, BH4 vs placebo; assay type: in vivo, human; conditions: eleven SSc subjects, oral BH4 10 mg/kg
# Source text: Methods: Subjects. Eleven subjects with SSc (3 men and 8 women) were recruited from the University of Utah SSc clinic to participate in the current study. All subjects had either a diagnosis of SSc as accepted by the American College of Rheumatology or early SSc as described by Leroy and […]. All subjects gave their written informed consent before participation. Protocol approval and written informed consent were obtained, according to the University of Utah and Salt Lake City Veterans Affairs Medical Center (VAMC) Institutional Review Board, in accordance with the principles outlined in the Declaration of Helsinki. […] Heart rate was monitored from a standard 3-lead ECG. […] FMD was quantified as the maximal change in BA diameter after cuff release. NMD was quantified as the maximal change in BA diameter after sublingual nitroglycerin supplementation. […] Shear rate was calculated according to the equation: shear rate (s-1)=(Vmean·8)/vessel diameter. Blood flow was calculated as per the equation: blood flow (mL·min)=(blood velocity×π)×(vessel diameter/2)2×(60). Cumulative shear rate cumulative area under the curve at the time of peak BA vasodilation was integrated with the trapezoidal rule and calculated as per the following equation: τ([…]]). Forearm vascular conductance was calculated according to the equation: MAP/BA blood flow. […]
# patients with SSc [2] = assay: Example 2: nitroglycerin-mediated dilation (NMD), BH4 vs placebo; assay type: in vivo, human; conditions: subset n=4; sublingual nitroglycerin 0.8 mg; P>0.05
compound,measurement,setting,value
"C[C@H](O)[C@H](O)[C@H]1CNc2nc(N)[nH]c(=O)c2N1 [BH4, tetrahydrobiopterin]",subjects in whom FMD was lower in the BH4 condition than in the placebo condition,patients with SSc [1],only one subject
same,subjects with improvement in FMD of at least 20% in the BH4 condition compared to placebo,patients with SSc [1]; absolute and percentage FMD,nine of the eleven subjects
same,"absolute or relative NMD, BH4 vs placebo",patients with SSc [2],No difference

# Reference: US20190076434A1, “METHODS OF TREATING PERIPHERAL VASCULAR DISEASES, INCLUDING SYSTEMIC SCLEROSIS VASCULOPATHY” (UNIVERSITY OF UTAH RESEARCH FOUNDATION, priority 2016, published 2019)
